According to paper PMC5485742:

Key:
[1] = biological target: CHIQ1, yeast two-hybrid fusion (Arabidopsis thaliana) (UniProt O22146); test: two-hybrid; CHIQ1 against potential interactors from the co-IP/MS (CHIQ1 family members, TFs) in yeast, pDEST22 and pDEST32 vectors; quantified in Fig. 5b
[2] = biological target: CHIQ1, yeast two-hybrid fusion (Arabidopsis thaliana) (UniProt O22146); test: two-hybrid; all-by-all physical interaction analysis among nine CHIQ proteins in yeast (Table S9)

binding [1] | binding [2] | Substance
binds |  | CHIQUITA1-LIKE 5 (CHIQL5), yeast two-hybrid fusion (from UniProt Q9MAG4)
binds |  | CHIQUITA1-LIKE 6 (CHIQL6), yeast two-hybrid fusion (from UniProt Q9LP57)
 | binds | CHIQUITA1-LIKE 7 (CHIQL7), yeast two-hybrid fusion (from UniProt Q6NPZ8)

Results are given in words; binding and its absence hold for the method and conditions named. Binding calls can cover weak binding; strength is not graded here. For part of these data: Binding seen in cells or lysates may run through a third protein.
